Test results reported in paper PMC11142722.

Sequences of proteins named here, by UniProt entry; tags and fusion partners are left off.
UniProt O75925: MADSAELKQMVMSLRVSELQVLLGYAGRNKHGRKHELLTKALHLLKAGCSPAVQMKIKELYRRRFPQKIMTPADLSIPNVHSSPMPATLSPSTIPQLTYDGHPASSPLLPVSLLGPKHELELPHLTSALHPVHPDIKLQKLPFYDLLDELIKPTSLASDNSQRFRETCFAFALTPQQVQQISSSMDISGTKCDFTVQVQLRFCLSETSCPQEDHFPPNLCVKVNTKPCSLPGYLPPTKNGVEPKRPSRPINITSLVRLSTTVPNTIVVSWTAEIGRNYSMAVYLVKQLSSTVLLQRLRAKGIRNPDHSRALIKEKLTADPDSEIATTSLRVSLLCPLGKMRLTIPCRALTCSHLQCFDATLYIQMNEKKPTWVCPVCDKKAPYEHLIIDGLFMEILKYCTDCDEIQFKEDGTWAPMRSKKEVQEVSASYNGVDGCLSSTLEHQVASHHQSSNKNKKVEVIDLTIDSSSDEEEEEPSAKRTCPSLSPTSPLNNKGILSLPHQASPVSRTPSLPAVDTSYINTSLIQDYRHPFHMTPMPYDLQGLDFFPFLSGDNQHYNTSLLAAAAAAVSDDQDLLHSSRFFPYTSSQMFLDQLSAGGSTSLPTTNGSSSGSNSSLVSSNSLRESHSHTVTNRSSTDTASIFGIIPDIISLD

B1: UL26 WT (protein, UniProt P16762 1-222)
chain: MYAVFGLTRSEVTPHEAAAARYKHRGVIDRQGAAMTSRRAPDGGLNLDDFMRRQRGRHLDLPYPRGYTLFVCDVEETILTPRDVEYWKLLVVTQGQLRVIGTIGLANLFSWDRSVAGVAADGSVLCYEISRENFVVRAADSLPQLLERGLLHSYFEDVERAAQGRLRHGNRSGLRRDADGQVIRESACYVSRVLLRHRVTPGKQEITDAMFEAGNVPSALLP
B2: PIAS3 (protein, UniProt Q9Y6X2 1-628)
chain: MAELGELKHMVMSFRVSELQVLLGFAGRNKSGRKHELLAKALHLLKSSCAPSVQMKIKELYRRRFPRKTLGPSDLSLLSLPPGTSPVGSPGPLAPIPPTLLAPGTLLGPKREVDMHPPLPQPVHPDVTMKPLPFYEVYGELIRPTTLASTSSQRFEEAHFTFALTPQQVQQILTSREVLPGAKCDYTIQVQLRFCLCETSCPQEDYFPPNLFVKVNGKLCPLPGYLPPTKNGAEPKRPSRPINITPLARLSATVPNTIVVNWSSEFGRNYSLSVYLVRQLTAGTLLQKLRAKGIRNPDHSRALIKEKLTADPDSEVATTSLRVSLMCPLGKMRLTVPCRALTCAHLQSFDAALYLQMNEKKPTWTCPVCDKKAPYESLIIDGLFMEILSSCSDCDEIQFMEDGSWCPMKPKKEASEVCPPPGYGLDGLQYSPVQGGDPSENKKKVEVIDLTIESSSDEEDLPPTKKHCSVTSAAIPALPGSKGVLTSGHQPSSVLRSPAMGTLGGDFLSSLPLHEYPPAFPLGADIQGLDLFSFLQTESQHYGPSVITSLDEQDALGHFFQYRGTPSHFLGPLAPTLGSSHCSATPAPPPGRVSSIVAPGGALREGHGGPLPSGPSLTGCRSDIISLD
B3: PIAS4 (protein, UniProt Q8N2W9 1-510)
chain: MAAELVEAKNMVMSFRVSDLQMLLGFVGRSKSGLKHELVTRALQLVQFDCSPELFKKIKELYETRYAKKNSEPAPQPHRPLDPLTMHSTYDRAGAVPRTPLAGPNIDYPVLYGKYLNGLGRLPAKTLKPEVRLVKLPFFNMLDELLKPTELVPQNNEKLQESPCIFALTPRQVELIRNSRELQPGVKAVQVVLRICYSDTSCPQEDQYPPNIAVKVNHSYCSVPGYYPSNKPGVEPKRPCRPINLTHLMYLSSATNRITVTWGNYGKSYSVALYLVRQLTSSELLQRLKTIGVKHPELCKALVKEKLRLDPDSEIATTGVRVSLICPLVKMRLSVPCRAETCAHLQCFDAVFYLQMNEKKPTWMCPVCDKPAPYDQLIIDGLLSKILSECEDADEIEYLVDGSWCPIRAEKERSCSPQGAILVLGPSDANGLLPAPSVNGSGALGSTGGGGPVGSMENGKPGADVVDLTLDSSSSSEDEEEEEEEEEDEDEEGPRPKRRCPFQKGLVPAC

Experiments:
HA-TurboID-PIAS1 (human) = HA-TurboID-PIAS1 (human) (UniProt O75925); assay: proximity labelling; HEK293T cells co-transfected with HA-TurboID-PIAS1 and UL26 WT or UL26ΔC, with or without cytokine (TNFα) treatment, 1 μM biotin for 1 hr at 47-48 h post transfection, Benzonase-treated lysate, streptavidin affinity purification, Western blot for UL26
[1] = target: HA-TurboID fused to the N-terminus of wildtype UL26 (Tur-N-UL26wt) (Human Cytomegalovirus (HCMV) AD169); assay: proximity labelling; MRC5 fibroblasts infected with Tur-N-UL26wt or Tur-N-UL26ΔC HCMV (MOI = 3), 1 μM biotin from 23 to 24 hpi, RIPA lysate, biotinylated proteins isolated on streptavidin magnetic beads and identified by LC-MS/MS (n = 1)

Binder | binding (HA-TurboID-PIAS1 (human)) | binding [1]
B1 | binds | –
B2 | – | binds
B3 | – | binds

These are yes or no findings as the source states them, for the method shown. In cells and extracts the contact can be indirect. A yes stands for co-enrichment or nearness to the bait. Other partners may have been found.
